From the supplement of paper PMC4807443
Structures can show the parent of a compound that is named as a salt. This is one part of the list. The numbers are fractions of the control, whatever unit the source prints. Most entries show no effect beyond the scatter of the controls.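 A lentiviral reporter stably expressed in MIN6 mouse insulinoma beta cells uses Pdx1 and Ins1 promoters to drive separate nucleus-targeted fluorescent proteins; automated imaging with Hoechst nuclear stain counted cells. Possible hits were drugs shifting Ins1 promoter signal more than two median absolute deviations from DMSO controls, with Pdx1 activity roughly normal.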

Test system: MIN6
Experiment: % Pdx1+ Ins1+ (double-positive, mature) cells relative to DMSO control (fold of DMSO control); higher = more mature Ins1 promoter-active cells
Details: 8.5 µM; 48 h; glucose 5 mM

Row | SMILES | % Pdx1+ Ins1+
1 | Cc1c(NC(C)C)c(=O)n(-c2ccccc2)n1C [Isopyrin hydrochloride] | 0.846
2 | CCCNC(C)C(=O)Nc1c(C)csc1C(=O)OC (centres undefined) [Articaine hydrochloride] | 0.967
3 | NCCc1cc[nH]n1 [Betazole hydrochloride] | 1.03
4 | CC(C[N+](C)(C)C)OC(N)=O (centres undefined) [Bethanechol chloride] | 0.868
5 | COc1ccc([C@@H]2Sc3ccccc3N(CCN(C)C)C(=O)[C@@H]2OC(C)=O)cc1 [Diltiazem hydrochloride] | 1.11
6 | Cc1cn([C@H]2C[C@H](N=[N+]=[N-])[C@@H](CO)O2)c(=O)[nH]c1=O [Zidovudine, AZT] | 1.05
7 | COc1ccc2c(c1)C(=O)N(CCc1ccc(S(=O)(=O)NC(=O)NC3CCCCC3)cc1)C(=O)C2(C)C [Gliquidone] | 1.08
8 | CN(C)CCN(Cc1ccc(Cl)cc1)c1ccccn1 [Chloropyramine hydrochloride] | 1.06
9 | O=C(O)CNC(=O)C(CS)Cc1ccccc1 (centres undefined) [Thiorphan] | 0.967
10 | CN(C)CCCC1(c2ccc(F)cc2)OCc2cc(C#N)ccc21 (centres undefined) [Citalopram Hydrobromide] | 0.731
11 | CN(C)CCC(c1ccc(Cl)cc1)c1ccccn1 (centres undefined) [Chlorpheniramine maleate] | 1.14
12 | COc1cc(N)c(Cl)cc1C(=O)NC1CCN(CCCOc2ccc(F)cc2)CC1OC (centres undefined) [Cisapride] | 1.05
13 | COC1=CC(=O)C[C@@H](C)[C@]12Oc1c(Cl)c(OC)cc(OC)c1C2=O [Griseofulvin] | 1.12
14 | CC(C)(C)NCC(O)c1ccc(O)c(CO)c1 (centres undefined) [Salbutamol] | 1.04
15 | Cc1c(OCC(F)(F)F)ccnc1C[S+]([O-])c1nc2ccccc2[nH]1 (centres undefined) [Lansoprazole] | 0.966
16 | COc1cc(N)c(Cl)cc1C(=O)NC1CCN(Cc2ccccc2)CC1 [Clebopride maleate] | 0.85
17 | COc1c(O)cc2c(c1O)[C@@H]1O[C@H](CO)[C@@H](O)[C@H](O)[C@H]1OC2=O [Bergenin monohydrate] | 0.957
18 | CCCCOc1ccc(OCCCN2CCOCC2)cc1 [Pramoxine hydrochloride] | 0.794
19 | O=C(NCC1CCCCN1)c1cc(OCC(F)(F)F)ccc1OCC(F)(F)F (centres undefined) [Flecainide acetate] | 0.852
20 | CC1CCc2cc(F)cc3c(=O)c(C(=O)O)cn1c23 (centres undefined) [Flumequine] | 1.08
21 | CCOC(=O)C1=C(C)NC(C)=C(C(=O)OC)C1c1cccc([N+](=O)[O-])c1 (centres undefined) [Nitrendipine] | 0.825
22 | CCn1cc(C(=O)O)c(=O)c2cc(F)c(N3CCNCC3)cc21 [Norfloxacin] | 1.09
23 | O=C(c1ccc(OCCN2CCCCC2)cc1)c1c(-c2ccc(O)cc2)sc2cc(O)ccc12 [Raloxifene hydrochloride] | 1.04
24 | NS(=O)(=O)c1cc2c(cc1C(F)(F)F)NC(Cc1ccccc1)NS2(=O)=O (centres undefined) [Bendroflumethiazide] | 0.907
25 | CC(CN1c2ccccc2Sc2ccccc21)N(C)C (centres undefined) [Promethazine hydrochloride] | 0.877

Row | SMILES | % Pdx1+ Ins1+
26 | CNC1(C)C2CCC(C2)C1(C)C (centres undefined) [Mecamylamine hydrochloride] | 1.07
27 | Cn1c(=O)c2c(ncn2CC(O)CO)n(C)c1=O (centres undefined) [Diprophylline] | 1.15
28 | CC(=C(CCO)SSCC1CCCO1)N(C=O)Cc1cnc(C)nc1N (stereo in doubt) [Fursultiamine Hydrochloride] | 0.869
29 | CCC(C)(CN(C)C)OC(=O)c1ccccc1 (centres undefined) [Amyleine hydrochloride] | 0.947
30 | C=C(NC(=O)C(=C)NC(=O)c1csc(C2=N[C@@H]3c4csc(n4)[C@H]4NC(=O)c5csc(n5)[C@H]([C@](C)(O)[C@@H](C)O)NC(=O)[C@H]5CSC(=N5)/C(=C/C)NC(=O)[C@H]([C@@H](C)O)NC(=O)c5csc(n5)[C@]3(CC2)NC(=O)[C@H](C)NC(=O)C(=C)NC(=O)[C@H](C)NC(=O)[C@H]([C@@H](C)CC)N[C@@H]2C=Cc3c([C@H](C)O)cc(nc3[C@H]2O)C(=O)O[C@@H]4C)n1)C(N)=O [Thiostrepton] | 0.924
31 | CC(C)(Oc1ccc(C2CC2(Cl)Cl)cc1)C(=O)O (centres undefined) [Ciprofibrate] | 0.943
32 | CC1=C(C(=O)O)N2C(=O)[C@@H](NC(=O)[C@H](N)c3ccc(O)cc3)[C@H]2SC1 [Cefadroxil] | 0.827
33 | CC(CCc1ccc(O)cc1)NCCc1ccc(O)c(O)c1 (centres undefined) [Dobutamine hydrochloride] | 0.914
34 | Nc1ccc(S(N)(=O)=O)cc1 [Sulfanilamide] | 0.844
35 | CC[C@]12CCCN3CCc4c(n(c5ccccc45)[C@@](O)(C(=O)OC)C1)[C@@H]32 [Vincamine] | 0.918
36 | O=C(O)c1cc(=O)c2c(OCC(O)COc3cccc4oc(C(=O)O)cc(=O)c34)cccc2o1 [Cromolyn disodium salt] | 1.05
37 | CC(=O)OC(C)C[N+](C)(C)C (centres undefined) [Methacholine chloride] | 0.977
38 | CCCCOc1ccc(CC(=O)NO)cc1 [Bufexamac] | 1.16
39 | C=CCc1ccccc1OCC(O)CNC(C)C (centres undefined) [Alprenolol hydrochloride] | 0.952
40 | NC[C@H]1CC[C@H](C(=O)O)CC1 [Tranexamic acid] | 1.13
41 | CN(C)CCC(c1ccccc1)c1ccccn1 (centres undefined) [Pheniramine maleate] | 1.04
42 | CCSc1ccc2c(c1)N(CCCN1CCN(C)CC1)c1ccccc1S2 [Thiethylperazine malate] | 0.816
43 | Cc1c(C)c2c(c(C)c1O)CC[C@@](C)(CCC[C@H](C)CCC[C@H](C)CCCC(C)C)O2 (racemic) [Tocopherol (R,S)] | 0.939
44 | CCN(CCCc1ccccc1)CCCc1ccccc1 [Alverine citrate salt] | 1.08
45 | CCN(CC)C(=O)N1CCN(C)CC1 [Diethylcarbamazine citrate] | 1.1
46 | CCCC(C(=O)OCCN(CC)CC)(c1ccccc1)c1ccccc1 [Proadifen hydrochloride] | 0.856
47 | C=CC[N@@+]12CC[C@@]34c5ccccc5N5/C=C6/[C@H]7C[C@H]8[C@@]9(CC[N@@+]8(CC=C)C/C7=C/CO)c7ccccc7N(/C=C(/[C@@H](C[C@@H]31)/C(=C\CO)C2)[C@H]54)[C@@H]69 [Alcuronium chloride] | 0.825
48 | C[C@H](CCC(=O)NCC(=O)O)[C@H]1CC[C@H]2[C@@H]3[C@H](O)C[C@@H]4C[C@H](O)CC[C@]4(C)[C@H]3C[C@H](O)[C@]12C [Glycocholic acid] | 0.937
49 | Clc1ccc(COC(Cn2ccnc2)c2ccc(Cl)cc2Cl)cc1 (centres undefined) [Econazole nitrate] | 1.01
50 | Clc1ccccc1C(c1ccccc1)(c1ccccc1)n1ccnc1 [Clotrimazole] | 0.972

Row | SMILES | % Pdx1+ Ins1+
51 | N=C(N)NS(=O)(=O)c1ccc(N)cc1 [Sulfaguanidine] | 1.12
52 | NC(=O)c1cc[n+](CC2=C(C(=O)[O-])N3C(=O)[C@@H](NC(=O)[C@@H](c4ccccc4)S(=O)(=O)O)[C@H]3SC2)cc1 [Cefsulodin sodium salt] | 1.03
53 | CC1=C(/C=C/C(C)=C/C=C/C(C)=C/C(=O)O)C(C)(C)CCC1 [Retinoic acid] | 1
54 | CCC1(c2ccccc2)NC(=O)N(C)C1=O (centres undefined) [Mephenytoin] | 0.946
55 | CCc1c(C)[nH]c2c1C(=O)C(CN1CCOCC1)CC2 (centres undefined) [Molindone hydrochloride] | 0.936
56 | Cc1ncc(CO)c(CO)c1O [Pyridoxine hydrochloride] | 0.909
57 | CC(=O)O[C@]1(C(C)=O)CC[C@H]2[C@@H]3C=C(Cl)C4=CC(=O)[C@@H]5C[C@@H]5[C@]4(C)[C@H]3CC[C@@]21C [Cyproterone acetate] | 0.913
58 | O=C(O)COCCN1CCN(C(c2ccccc2)c2ccc(Cl)cc2)CC1 (centres undefined) [Cetirizine dihydrochloride] | 0.773
59 | N[C@@H]1CONC1=O [D-cycloserine] | 0.904
60 | Clc1ccc(Cn2c(CN3CCCC3)nc3ccccc32)cc1 [Clemizole hydrochloride] | 1.21
61 | COc1cc2nc(N(C)CCCNC(=O)C3CCCO3)nc(N)c2cc1OC (centres undefined) [Alfuzosin hydrochloride] | 0.92
62 | O=C(O)/C=C/c1ccc(O)c(O)c1 [Caffeic acid] | 0.9
63 | N=C(N)NC(=O)Cc1c(Cl)cccc1Cl [Guanfacine hydrochloride] | 0.639
64 | CN1C(=O)CC(c2ccccc2)C1=O (centres undefined) [Phensuximide] | 0.899
65 | C[n+]1cc2c3c(ccc2c2ccc4cc5c(cc4c21)OCO5)OCO3 [Sanguinarine] | 0.213
66 | Clc1ccc(CSC(Cn2ccnc2)c2ccc(Cl)cc2Cl)cc1 (centres undefined) [Sulconazole nitrate] | 1.08
67 | CCCN(CCC)S(=O)(=O)c1ccc(C(=O)O)cc1 [Probenecid] | 0.902
68 | C[C@]12CC[C@@H]3c4ccc(O)cc4CC[C@H]3[C@@H]1CC[C@@H]2O [Estradiol-17 beta] | 0.959
69 | CN(C)CCOC(c1ccccc1)c1ccccc1 [Diphenhydramine hydrochloride] | 1.09
70 | NC(Cc1cc(I)c(Oc2cc(I)c(O)c(I)c2)c(I)c1)C(=O)O (centres undefined) [Thyroxine (L)] | 0.881
71 | CN(C)CC/C=C1/c2ccccc2Sc2ccc(Cl)cc21 [Chlorprothixene hydrochloride] | 0.829
72 | CC(=O)[C@H]1CC[C@H]2[C@@H]3CCC4=CC(=O)CC[C@]4(C)[C@H]3CC[C@]12C [Progesterone] | 0.92
73 | C[C@]12CCC(=O)C=C1CC[C@@H]1[C@@H]2[C@@H](O)C[C@@]2(C)[C@H]1CC[C@]2(O)C(=O)CO [Hydrocortisone base] | 0.964
74 | CCCCCCC[N+](CC)(CC)CCCCc1ccc(Cl)cc1 [Clofilium tosylate] | 0.421
